Results: the supplement of paper PMC12595434, “Development of retinoid nuclear receptor pathway antagonists through targeting aldehyde dehydrogenase 1A3” (iScience, 2025)
This is one part of the list. This is a noisy data set.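 Tm was set to 64 °C where no melting was found, and many curves are irregular.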

The chains behind the UniProt entries cited, without tags or fusion partners. Where a name states a change or a piece, a line headed by the entry shows the natural chain unless it says otherwise.
UniProt O15121: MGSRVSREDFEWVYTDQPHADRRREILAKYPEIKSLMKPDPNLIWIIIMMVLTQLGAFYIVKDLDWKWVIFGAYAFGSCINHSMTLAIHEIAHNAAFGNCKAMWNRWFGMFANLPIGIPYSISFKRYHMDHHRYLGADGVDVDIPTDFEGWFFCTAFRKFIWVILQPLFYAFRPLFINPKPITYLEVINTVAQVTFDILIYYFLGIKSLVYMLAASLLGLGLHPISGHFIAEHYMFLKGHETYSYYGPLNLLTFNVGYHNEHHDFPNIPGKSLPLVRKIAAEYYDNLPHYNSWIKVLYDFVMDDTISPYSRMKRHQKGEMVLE
UniProt O00562: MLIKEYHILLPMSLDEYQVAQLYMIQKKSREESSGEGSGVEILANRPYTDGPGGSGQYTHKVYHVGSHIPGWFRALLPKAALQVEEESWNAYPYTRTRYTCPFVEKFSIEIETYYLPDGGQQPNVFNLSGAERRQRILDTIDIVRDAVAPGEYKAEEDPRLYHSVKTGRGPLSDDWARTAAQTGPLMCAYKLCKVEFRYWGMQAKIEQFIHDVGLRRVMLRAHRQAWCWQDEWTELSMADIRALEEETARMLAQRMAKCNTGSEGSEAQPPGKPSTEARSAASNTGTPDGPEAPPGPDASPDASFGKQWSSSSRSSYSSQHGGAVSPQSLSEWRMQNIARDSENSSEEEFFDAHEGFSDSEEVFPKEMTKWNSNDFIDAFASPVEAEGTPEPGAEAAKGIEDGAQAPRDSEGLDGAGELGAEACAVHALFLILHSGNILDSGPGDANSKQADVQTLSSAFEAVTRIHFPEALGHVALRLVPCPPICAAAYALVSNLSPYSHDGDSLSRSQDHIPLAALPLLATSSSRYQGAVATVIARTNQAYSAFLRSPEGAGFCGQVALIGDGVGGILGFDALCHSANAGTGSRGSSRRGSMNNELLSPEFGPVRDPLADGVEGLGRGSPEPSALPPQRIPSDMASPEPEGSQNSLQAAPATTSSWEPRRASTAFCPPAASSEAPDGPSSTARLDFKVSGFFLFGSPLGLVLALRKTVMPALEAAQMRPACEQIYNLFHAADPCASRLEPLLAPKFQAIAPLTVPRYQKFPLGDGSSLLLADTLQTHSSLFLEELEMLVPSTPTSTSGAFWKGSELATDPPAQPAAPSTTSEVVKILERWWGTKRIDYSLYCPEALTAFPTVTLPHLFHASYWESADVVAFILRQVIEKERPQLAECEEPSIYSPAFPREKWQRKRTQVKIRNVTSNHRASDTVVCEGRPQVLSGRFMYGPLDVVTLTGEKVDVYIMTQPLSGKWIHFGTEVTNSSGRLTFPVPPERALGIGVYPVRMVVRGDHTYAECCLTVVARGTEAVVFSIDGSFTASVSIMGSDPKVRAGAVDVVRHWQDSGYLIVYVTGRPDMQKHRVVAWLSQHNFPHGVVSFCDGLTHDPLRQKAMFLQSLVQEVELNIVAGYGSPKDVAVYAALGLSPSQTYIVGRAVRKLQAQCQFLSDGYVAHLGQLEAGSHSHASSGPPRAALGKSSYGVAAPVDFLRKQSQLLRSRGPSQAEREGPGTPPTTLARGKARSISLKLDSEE
UniProt O15258: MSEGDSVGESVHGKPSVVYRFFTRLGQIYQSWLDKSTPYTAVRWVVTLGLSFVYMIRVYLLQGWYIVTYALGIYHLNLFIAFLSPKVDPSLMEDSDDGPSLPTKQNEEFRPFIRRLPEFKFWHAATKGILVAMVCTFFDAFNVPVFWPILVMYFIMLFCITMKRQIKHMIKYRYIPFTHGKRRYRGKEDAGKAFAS
UniProt O00194: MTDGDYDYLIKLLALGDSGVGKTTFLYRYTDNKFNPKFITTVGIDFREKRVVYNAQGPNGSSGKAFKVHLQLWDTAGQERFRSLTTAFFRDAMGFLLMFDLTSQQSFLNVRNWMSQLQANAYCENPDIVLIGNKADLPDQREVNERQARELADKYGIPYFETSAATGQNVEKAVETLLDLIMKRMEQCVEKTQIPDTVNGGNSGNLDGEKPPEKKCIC
UniProt O43303: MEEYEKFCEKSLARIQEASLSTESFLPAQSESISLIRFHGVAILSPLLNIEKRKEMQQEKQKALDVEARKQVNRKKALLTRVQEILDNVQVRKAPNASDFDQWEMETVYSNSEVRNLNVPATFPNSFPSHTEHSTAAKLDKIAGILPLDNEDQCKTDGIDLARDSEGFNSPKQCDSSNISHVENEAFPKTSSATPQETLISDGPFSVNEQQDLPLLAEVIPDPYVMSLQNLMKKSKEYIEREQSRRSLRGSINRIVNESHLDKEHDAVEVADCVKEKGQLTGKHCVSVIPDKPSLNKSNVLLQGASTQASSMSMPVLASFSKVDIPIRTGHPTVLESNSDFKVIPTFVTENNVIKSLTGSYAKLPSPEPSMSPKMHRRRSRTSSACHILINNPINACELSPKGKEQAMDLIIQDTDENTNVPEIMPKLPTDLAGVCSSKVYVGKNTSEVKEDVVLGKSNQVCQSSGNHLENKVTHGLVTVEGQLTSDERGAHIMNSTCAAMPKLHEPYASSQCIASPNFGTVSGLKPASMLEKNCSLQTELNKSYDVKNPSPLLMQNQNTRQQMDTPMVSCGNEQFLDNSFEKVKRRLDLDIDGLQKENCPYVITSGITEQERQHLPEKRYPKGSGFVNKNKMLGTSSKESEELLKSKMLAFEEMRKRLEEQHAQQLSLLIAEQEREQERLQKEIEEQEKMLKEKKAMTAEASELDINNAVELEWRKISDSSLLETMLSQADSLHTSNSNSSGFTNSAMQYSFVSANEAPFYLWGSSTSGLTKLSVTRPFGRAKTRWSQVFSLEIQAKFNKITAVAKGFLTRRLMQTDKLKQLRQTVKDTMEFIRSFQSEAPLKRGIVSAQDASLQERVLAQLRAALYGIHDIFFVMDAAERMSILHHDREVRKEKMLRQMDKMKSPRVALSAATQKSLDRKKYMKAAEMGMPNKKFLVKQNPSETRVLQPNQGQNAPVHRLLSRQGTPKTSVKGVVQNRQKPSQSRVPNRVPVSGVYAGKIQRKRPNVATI
UniProt O00429, whole entry: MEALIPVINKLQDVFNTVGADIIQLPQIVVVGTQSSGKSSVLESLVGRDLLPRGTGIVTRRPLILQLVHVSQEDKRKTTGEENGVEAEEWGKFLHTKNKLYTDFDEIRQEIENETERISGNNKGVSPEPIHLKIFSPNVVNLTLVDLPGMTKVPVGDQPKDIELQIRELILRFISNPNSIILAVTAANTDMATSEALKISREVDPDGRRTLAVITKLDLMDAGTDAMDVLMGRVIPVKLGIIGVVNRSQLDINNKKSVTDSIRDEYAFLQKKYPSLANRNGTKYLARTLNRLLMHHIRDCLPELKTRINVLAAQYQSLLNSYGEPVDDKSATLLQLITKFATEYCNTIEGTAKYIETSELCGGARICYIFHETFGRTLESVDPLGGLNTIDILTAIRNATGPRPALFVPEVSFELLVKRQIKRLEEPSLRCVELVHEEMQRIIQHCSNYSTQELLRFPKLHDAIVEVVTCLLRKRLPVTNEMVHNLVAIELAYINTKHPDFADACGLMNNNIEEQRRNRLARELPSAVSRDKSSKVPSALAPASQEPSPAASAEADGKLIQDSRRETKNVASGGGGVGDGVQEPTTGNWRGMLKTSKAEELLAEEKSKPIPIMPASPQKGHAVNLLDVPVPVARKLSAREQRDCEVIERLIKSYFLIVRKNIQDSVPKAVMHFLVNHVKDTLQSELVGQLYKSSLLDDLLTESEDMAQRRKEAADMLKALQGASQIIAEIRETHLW
UniProt O14653: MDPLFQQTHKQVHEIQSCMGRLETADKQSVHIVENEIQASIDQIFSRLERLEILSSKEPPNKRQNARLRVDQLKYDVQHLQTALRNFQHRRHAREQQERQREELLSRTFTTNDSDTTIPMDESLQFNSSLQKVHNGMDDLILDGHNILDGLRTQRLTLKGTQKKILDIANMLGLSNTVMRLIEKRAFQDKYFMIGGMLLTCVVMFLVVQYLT
UniProt O43293: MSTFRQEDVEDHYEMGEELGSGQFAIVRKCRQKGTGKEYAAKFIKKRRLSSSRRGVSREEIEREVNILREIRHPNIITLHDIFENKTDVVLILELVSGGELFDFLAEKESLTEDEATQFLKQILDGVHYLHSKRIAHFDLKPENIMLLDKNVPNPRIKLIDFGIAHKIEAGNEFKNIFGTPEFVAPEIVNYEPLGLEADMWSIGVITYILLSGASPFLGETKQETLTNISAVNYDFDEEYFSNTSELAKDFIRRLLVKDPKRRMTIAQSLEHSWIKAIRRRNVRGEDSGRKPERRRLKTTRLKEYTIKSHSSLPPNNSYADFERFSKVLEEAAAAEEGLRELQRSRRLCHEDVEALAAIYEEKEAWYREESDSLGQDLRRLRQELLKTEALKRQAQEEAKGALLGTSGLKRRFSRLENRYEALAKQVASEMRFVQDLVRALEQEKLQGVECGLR
UniProt O15439: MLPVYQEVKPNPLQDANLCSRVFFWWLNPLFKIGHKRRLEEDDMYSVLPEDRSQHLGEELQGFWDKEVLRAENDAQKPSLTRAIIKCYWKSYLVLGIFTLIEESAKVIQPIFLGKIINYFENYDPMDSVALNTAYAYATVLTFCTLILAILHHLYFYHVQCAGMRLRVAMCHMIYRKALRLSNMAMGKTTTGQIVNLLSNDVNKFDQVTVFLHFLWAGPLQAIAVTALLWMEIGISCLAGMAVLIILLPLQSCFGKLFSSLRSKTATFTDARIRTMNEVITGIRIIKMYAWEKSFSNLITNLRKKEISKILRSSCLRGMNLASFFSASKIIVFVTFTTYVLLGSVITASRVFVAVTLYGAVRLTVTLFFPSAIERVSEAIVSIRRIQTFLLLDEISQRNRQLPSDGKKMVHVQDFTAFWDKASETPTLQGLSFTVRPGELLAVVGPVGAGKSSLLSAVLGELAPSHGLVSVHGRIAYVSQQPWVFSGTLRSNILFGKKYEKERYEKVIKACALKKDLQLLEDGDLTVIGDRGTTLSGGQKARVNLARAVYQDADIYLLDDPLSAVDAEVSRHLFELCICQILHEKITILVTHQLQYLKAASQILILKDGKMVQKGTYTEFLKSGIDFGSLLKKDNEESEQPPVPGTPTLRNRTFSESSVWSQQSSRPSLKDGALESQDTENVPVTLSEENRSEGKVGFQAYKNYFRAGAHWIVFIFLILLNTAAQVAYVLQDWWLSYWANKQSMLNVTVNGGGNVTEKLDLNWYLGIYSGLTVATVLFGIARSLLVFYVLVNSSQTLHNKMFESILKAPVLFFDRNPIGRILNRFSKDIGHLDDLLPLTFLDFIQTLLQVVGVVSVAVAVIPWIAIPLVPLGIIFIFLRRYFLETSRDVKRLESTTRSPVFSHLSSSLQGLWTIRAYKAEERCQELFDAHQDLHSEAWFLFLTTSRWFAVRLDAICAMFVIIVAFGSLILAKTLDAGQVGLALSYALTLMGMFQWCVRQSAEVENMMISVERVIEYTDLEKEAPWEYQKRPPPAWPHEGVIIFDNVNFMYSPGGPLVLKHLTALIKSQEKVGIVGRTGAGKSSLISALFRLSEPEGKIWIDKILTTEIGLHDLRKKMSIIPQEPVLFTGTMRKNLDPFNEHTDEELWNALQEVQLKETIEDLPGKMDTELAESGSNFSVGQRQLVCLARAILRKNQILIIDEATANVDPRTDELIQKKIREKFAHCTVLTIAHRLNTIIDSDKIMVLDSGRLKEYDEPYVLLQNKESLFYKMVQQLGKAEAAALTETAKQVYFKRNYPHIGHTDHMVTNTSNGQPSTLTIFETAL
UniProt O00287: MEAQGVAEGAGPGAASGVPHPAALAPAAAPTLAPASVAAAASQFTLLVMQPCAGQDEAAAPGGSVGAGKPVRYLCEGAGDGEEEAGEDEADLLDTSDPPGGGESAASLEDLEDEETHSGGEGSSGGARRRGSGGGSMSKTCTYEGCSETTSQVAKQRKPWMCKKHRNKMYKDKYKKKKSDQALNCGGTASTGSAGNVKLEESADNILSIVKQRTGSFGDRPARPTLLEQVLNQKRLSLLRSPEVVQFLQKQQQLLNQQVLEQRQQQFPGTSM
UniProt O14737: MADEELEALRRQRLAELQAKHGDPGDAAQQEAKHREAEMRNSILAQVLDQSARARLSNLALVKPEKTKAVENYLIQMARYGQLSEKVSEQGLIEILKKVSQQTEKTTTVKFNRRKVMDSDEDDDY
UniProt O43159: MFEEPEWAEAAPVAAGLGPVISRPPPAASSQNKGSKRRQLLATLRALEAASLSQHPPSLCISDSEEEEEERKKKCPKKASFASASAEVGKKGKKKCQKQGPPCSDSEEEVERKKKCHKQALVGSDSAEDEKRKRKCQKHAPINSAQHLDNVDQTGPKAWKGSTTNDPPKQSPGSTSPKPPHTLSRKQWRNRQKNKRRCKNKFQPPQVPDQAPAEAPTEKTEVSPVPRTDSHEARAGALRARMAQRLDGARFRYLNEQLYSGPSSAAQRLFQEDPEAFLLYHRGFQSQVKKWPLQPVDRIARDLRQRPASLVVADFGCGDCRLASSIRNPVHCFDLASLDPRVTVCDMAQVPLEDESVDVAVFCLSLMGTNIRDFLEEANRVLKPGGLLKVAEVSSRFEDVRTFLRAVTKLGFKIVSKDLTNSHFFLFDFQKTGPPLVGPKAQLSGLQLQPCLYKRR

Compound: CCc1cnccc1C(=O)Nc1cc2c(cc1F)NC(=O)CC2
Test: melting temperature shift (DMSO Tm minus MBE1-treated Tm) in cellular thermal proteome profiling; higher = less thermal stabilization by MBE1 (negative = stabilized by MBE1)
Settings: A375; MBE1 concentration: 100 nM

Question: DEGS1 (UniProt O15121) was tested. Which melting temperature shift did it give?
Answer: -0.543 °C

Question: How did the melting temperature shift turn out when UniProt O15040 was run?
Answer: 0.181 °C

Question: How did the melting temperature shift turn out when SOCS6 (UniProt O14544) was run?
Answer: -0.489 °C

Question: For UniProt A8MW92, which melting temperature shift is on record?
Answer: 0.782 °C

Question: UniProt O00562 was tested. Which melting temperature shift did it give?
Answer: 1.54 °C

Question: How did the melting temperature shift turn out when UniProt O14523 was run?
Answer: -1.12 °C

Question: How did the melting temperature shift turn out when UniProt B2RTY4 was run?
Answer: 0.714 °C

Question: RER1 (UniProt O15258) was tested. Which melting temperature shift did it give?
Answer: -3.24 °C

Question: For RIOK3 (UniProt O14730), which melting temperature shift is on record?
Answer: -1.14 °C

Question: UniProt O15050 was tested. Which melting temperature shift did it give?
Answer: -0.841 °C

Question: With RAB27B (UniProt O00194) as the target, how does the melting temperature shift read?
Answer: -1.32 °C

Question: Which melting temperature shift does the source give for UniProt O15530 here?
Answer: -0.293 °C

Question: POLR2D (UniProt O15514) was tested. Which melting temperature shift did it give?
Answer: -1.96 °C

Question: Which melting temperature shift does the source give for UniProt A5D8V6 here?
Answer: -1.3 °C

Question: Which melting temperature shift does the source give for GNPAT (UniProt O15228) here?
Answer: -0.537 °C

Question: With SART1 (UniProt O43290) as the target, how does the melting temperature shift read?
Answer: -0.757 °C

Question: With UniProt O43303 as the target, how does the melting temperature shift read?
Answer: 0.519 °C

Question: Which melting temperature shift does the source give for EXOC5 (UniProt O00471) here?
Answer: -0.579 °C

Question: How did the melting temperature shift turn out when DNM1L (UniProt O00429) was run?
Answer: 0.0611 °C

Question: With UniProt O14653 as the target, how does the melting temperature shift read?
Answer: -1.5 °C

Question: Which melting temperature shift does the source give for DAPK3 (UniProt O43293) here?
Answer: -0.673 °C

Question: ABCC4 (UniProt O15439) was tested. Which melting temperature shift did it give?
Answer: -1.25 °C

Question: UniProt O00287 was tested. Which melting temperature shift did it give?
Answer: -7.64 °C

Question: With UniProt O15083 as the target, how does the melting temperature shift read?
Answer: 0.788 °C

Question: UniProt O43157 was tested. Which melting temperature shift did it give?
Answer: 0.695 °C

Question: UniProt O15068 was tested. Which melting temperature shift did it give?
Answer: 3.21 °C

Question: Which melting temperature shift does the source give for PDCD5 (UniProt O14737) here?
Answer: 0 °C

Question: How did the melting temperature shift turn out when UniProt O43159 was run?
Answer: -0.115 °C
